Assay results as given in patent US8889375B2, “Hypoglycemic effect enhancer” (Biofermin Pharmaceutical Co., Ltd., priority 2009, dated 2014).
At least one compound was matched to its structure with a doubt left.

How the values were obtained:
KK-A^y mice [1] = test: Oral glucose tolerance test (OGTT) after 4-week feeding of the test diet (Example 6); format: in vivo, mouse; conditions: 4-week feeding (10% BBG9-1 dried cells and/or 0.1% acarbose in CE-2)
KK-A^y mice [2] = test: Oral glucose tolerance test (OGTT) after 4-week feeding of the test diet (Example 5); format: in vivo, mouse; conditions: 4-week feeding (5% 3B + 5% H(α) dried cells and/or 0.1% acarbose in CE-2)

## C[C@H]1O[C@H](O[C@H]2[C@H](O)[C@@H](O)[C@@H](O[C@H]3[C@H](O)[C@@H](O)C(O)O[C@@H]3CO)O[C@@H]2CO)[C@H](O)[C@@H](O)[C@@H]1N[C@H]1C=C(CO)[C@@H](O)[C@H](O)[C@H]1O (stereo partly drawn) [acarbose, O-4,6-dideoxy-4-[[(1S,4R,5S,6S)-4,5,6-trihydroxy-3-(hydroxymethyl)-2-cyclohexen-1-yl]amino]-α-D-glucopyranosyl-(1-+4)-O-α-D-glucopyranosyl(1→4)-D-glucopyranose]
KK-A^y mice [1]; FIG. 7
  blood glucose level in the OGTT after glucose loading: neither BBG9-1 alone nor acarbose alone inhibited the increase in the blood glucose level
KK-A^y mice [1]; FIG. 8
  AUC of blood glucose in the OGTT: neither BBG9-1 alone nor acarbose alone significantly reduced the AUC as compared with Group I
KK-A^y mice [2]; FIG. 5
  blood glucose level in the OGTT after glucose loading: neither concomitant use of 3B and H(α) nor acarbose alone inhibited the increase in the blood glucose level
KK-A^y mice [2]; FIG. 6
  AUC of blood glucose in the OGTT: neither concomitant use of 3B and H(α) nor acarbose alone significantly reduced the AUC as compared with Group E
